# No constants are given. Whether binding was seen depends on the method and setting. Binding seen in cells or lysates may run through a third protein. Some entries that bind do so weakly or less than the wild type.
# By UniProt entry, the sequences of proteins in these tests, tags left out.
# UniProt O88522: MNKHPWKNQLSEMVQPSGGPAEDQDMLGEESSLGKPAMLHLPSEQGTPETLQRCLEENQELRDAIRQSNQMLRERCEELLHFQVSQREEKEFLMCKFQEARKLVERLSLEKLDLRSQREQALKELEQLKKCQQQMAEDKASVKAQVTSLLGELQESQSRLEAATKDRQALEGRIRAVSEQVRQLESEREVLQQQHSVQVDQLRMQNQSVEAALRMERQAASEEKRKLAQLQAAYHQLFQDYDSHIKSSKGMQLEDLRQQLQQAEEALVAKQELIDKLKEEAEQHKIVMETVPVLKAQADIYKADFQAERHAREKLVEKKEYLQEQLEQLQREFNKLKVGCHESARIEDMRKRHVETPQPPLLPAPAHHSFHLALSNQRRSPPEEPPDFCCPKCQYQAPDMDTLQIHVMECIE
# T1: Foxp3 (transfected in 293T cells) (UniProt Q99JB6)
# T1 sequence: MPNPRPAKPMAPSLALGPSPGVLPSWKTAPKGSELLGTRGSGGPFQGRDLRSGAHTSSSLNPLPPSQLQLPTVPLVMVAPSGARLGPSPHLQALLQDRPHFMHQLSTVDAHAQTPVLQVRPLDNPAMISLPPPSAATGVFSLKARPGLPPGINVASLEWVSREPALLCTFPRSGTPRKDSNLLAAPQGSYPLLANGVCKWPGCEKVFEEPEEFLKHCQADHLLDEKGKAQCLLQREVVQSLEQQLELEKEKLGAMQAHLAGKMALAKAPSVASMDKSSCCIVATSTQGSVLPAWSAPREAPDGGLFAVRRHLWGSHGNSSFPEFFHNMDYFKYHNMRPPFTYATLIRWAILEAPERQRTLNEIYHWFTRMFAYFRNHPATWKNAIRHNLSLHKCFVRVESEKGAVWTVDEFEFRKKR
# What was measured:
# [1] = target: T1, Foxp3 (transfected in 293T cells); assay: co-IP; 293T cells transiently transfected with both Foxp3 and c-myc-tagged NEMO plasmids; cells with either plasmid alone as controls; two clones of anti-Foxp3 Ab (K-13, H190) used for IP; RIPA buffer
# [2] = target: IKKγ/NEMO (mouse (endogenous in splenic CD4+ T cells)) (UniProt O88522); assay: co-IP; lysates (RIPA buffer) of primary splenic CD4+ T cells from WT and Sf mice; pulled down by anti-NEMO Ab, blotted with anti-NEMO or anti-Foxp3 Ab; total lysate of Foxp3+ Tregs as positive control
binding [1],binding [2],Molecule
binds,–,NEMO (tagged with c-myc) (from UniProt O88522 1-412)
–,binds,"Foxp3 (protein, UniProt Q99JB6 1-417) MPNPRPAKPMAPSLALGPSPGVLPSWKTAPKGSELLGTRGSGGPFQGRDLRSGAHTSSSLNPLPPSQLQLPTVPLVMVAPSGARLGPSPHLQALLQDRPHFMHQLSTVDAHAQTPVLQVRPLDNPAMISLPPPSAATGVFSLKARPGLPPGINVASLEWVSREPALLCTFPRSGTPRKDSNLLAAPQGSYPLLANGVCKWPGCEKVFEEPEEFLKHCQADHLLDEKGKAQCLLQREVVQSLEQQLELEKEKLGAMQAHLAGKMALAKAPSVASMDKSSCCIVATSTQGSVLPAWSAPREAPDGGLFAVRRHLWGSHGNSSFPEFFHNMDYFKYHNMRPPFTYATLIRWAILEAPERQRTLNEIYHWFTRMFAYFRNHPATWKNAIRHNLSLHKCFVRVESEKGAVWTVDEFEFRKKR"

# From article PMC4650554
